Data taken from patent publication US20230233707A1 (University of Washington, published 2023).

The binders below were run against T1, Fc from human IgG1 (human, UniProt P01857-1 104-330 = IgG part) (assay: SEC, design mixed with human IgG1 Fc, overlaid on the single components [panel B]).
T1 construct: domain: Fc; also called human IgG1 Fc; IgG1 Fc protein
Source text: Synthetic genes encoding designed protein sequences appended with a C-terminal 6× histidine tag were expressed in E. coli. Designs were purified from clarified lysates using immobilized metal affinity chromatography (IMAC), and size exclusion chromatography (SEC) was used as a final purification step. […] Designs were then combined with human IgG1 Fc, and the assemblies were re-purified via SEC. Eight of these AbC-forming designs assembled with Fc into a species that eluted as a monodisperse peak at a volume consistent with the target nanoparticle molecular weight (FIG. 2a-b; 3 D2 dihedral, 2 T32 tetrahedral, 1 O42 octahedral, and 2 I52 icosahedral AbCs). For the i52.6 design, adding 100 mM L-arginine to the assembly buffer prevented aggregation after combining with Fc; all other designs readily self-assembled in Tris-buffered saline.
Designs that produced monodisperse SEC peaks around their expected retention volume were combined with Fc from human IgG1. Fc was produced recombinantly either using standard methods for expression in HEK293T cells or in E. coli (43). Cage components were incubated at 4° C. for at minimum 30 minutes. […] Fc-binding and cage formation were confirmed via SEC; earlier shifts in retention time (compared to either component run alone) show the formation of a larger structure. NS-EM was used as previously described to confirm the structures of designs that passed these steps.

Binder | binding result
o42.1 (designed binder, Homotetramer for O42 octahedral cages; C-terminal GS linker and 6xHis tag; also called octahedral o42.1 AbC-forming design) MFNKDQQSAFYEILNMPNLNEALRNGFIQLLKDDPSKSTVILTAAKVAAELSEKIRTLKESGSSYEQIAETVAKAVAKLVEKLKRNGVSEDEIALAVALIISAVIQTLKESGSSYEVIAEIVARIVAEIVEALKRSGTSEDEIAEIVARVISEVIRTLKESGSSYEVIAEIVARIVAEIVEALKRSGTSEDEIAKIVARVIAEVLRTLKESGSSEEVIKEIVARIITEIKEALKRSGTSEDEIELITLMIEAALEIAKLKSSGSEYEEICEDVARRIAELVEKLKRDGTSAVEIAKIVAAIISAVIAMLKASGSSYEVICECVARIVAEIVEALKRSGTSAAIIALIVALVISEVIRTLKESGSSFEVILECVIRIVLEIIEALKRSGTSEQDVMLIVMAVLLVVLATLQLSGSLEHHHHHH | binds
t32.4 (designed binder, Homotrimer for T32 tetrahedral cages; C-terminal GS linker and 6xHis tag; also called t.4_r1; t32.4 AbC-forming design) MFNKSQQSAFYLILNMPNLNEAQRNGFIQSLKDDPSKSEVVAGEAAIEAARNALKKGSPETAREAVRLALELVQEAERQARKTGSTERLIAAAKLAIEVARVALKVGSPETAREAVRTALELVQELIRQARKTGSKEVLEEAAKLALEVAKVAAEVGSPETAARAVATAVEALKEAGASEDEIAEIVARVISEVIRILKESGSEYKVICRAVARIVAEIVEALKRSGTSEDEIAEIVARVISEVIRTLKESGSDYLIICVCVAIIVAEIVEALKRSGTSEDEIAEIVARVISEVIRTLKESGSSYEVIKECVQIIVLAIILALMKSGTEVEEILLILLRVKTEVRRTLKESGSLEHHHHHH | binds
t32.8 (designed binder, Homotrimer for T32 tetrahedral cages; also called t32.8 AbC-forming design) MFNKDQQSAFYEVLNMPNLNEAQRNGFIQSLKDDPSQSLKILIKAAAGGDSELEEVAKRIVKELAEQGRSEKEAAKEAAELIERITRAAGGNSDLIELAVRIVKILEEQGRSPSEAAKEAVEAIEAIVRAAGGDSEAIKVAAEIAKTIITQKESGSEYKEICRTVARIVAEIVEKLKRNGASEDEIAEIVAAIIAAVILTLKLSGSDYLIICVCVAIIVAEIVEALKRSGTSEDEIAEIVARVISAVIRVLKESGSSYEVIKECVQIIVLAIILALMKSGTEVEEILLILLRVKTEVRRTLKESGSLEHHHHHH | binds
